Article PMC12512898
Results are given in words; binding and its absence hold for the method and conditions named. Binding seen in cells or lysates may run through a third protein. Some results given as binding are weak or reduced against the parent protein; the word gives no strength.

Chains of the proteins cited; added tags and fusions are not shown.
UniProt Q6P5F9: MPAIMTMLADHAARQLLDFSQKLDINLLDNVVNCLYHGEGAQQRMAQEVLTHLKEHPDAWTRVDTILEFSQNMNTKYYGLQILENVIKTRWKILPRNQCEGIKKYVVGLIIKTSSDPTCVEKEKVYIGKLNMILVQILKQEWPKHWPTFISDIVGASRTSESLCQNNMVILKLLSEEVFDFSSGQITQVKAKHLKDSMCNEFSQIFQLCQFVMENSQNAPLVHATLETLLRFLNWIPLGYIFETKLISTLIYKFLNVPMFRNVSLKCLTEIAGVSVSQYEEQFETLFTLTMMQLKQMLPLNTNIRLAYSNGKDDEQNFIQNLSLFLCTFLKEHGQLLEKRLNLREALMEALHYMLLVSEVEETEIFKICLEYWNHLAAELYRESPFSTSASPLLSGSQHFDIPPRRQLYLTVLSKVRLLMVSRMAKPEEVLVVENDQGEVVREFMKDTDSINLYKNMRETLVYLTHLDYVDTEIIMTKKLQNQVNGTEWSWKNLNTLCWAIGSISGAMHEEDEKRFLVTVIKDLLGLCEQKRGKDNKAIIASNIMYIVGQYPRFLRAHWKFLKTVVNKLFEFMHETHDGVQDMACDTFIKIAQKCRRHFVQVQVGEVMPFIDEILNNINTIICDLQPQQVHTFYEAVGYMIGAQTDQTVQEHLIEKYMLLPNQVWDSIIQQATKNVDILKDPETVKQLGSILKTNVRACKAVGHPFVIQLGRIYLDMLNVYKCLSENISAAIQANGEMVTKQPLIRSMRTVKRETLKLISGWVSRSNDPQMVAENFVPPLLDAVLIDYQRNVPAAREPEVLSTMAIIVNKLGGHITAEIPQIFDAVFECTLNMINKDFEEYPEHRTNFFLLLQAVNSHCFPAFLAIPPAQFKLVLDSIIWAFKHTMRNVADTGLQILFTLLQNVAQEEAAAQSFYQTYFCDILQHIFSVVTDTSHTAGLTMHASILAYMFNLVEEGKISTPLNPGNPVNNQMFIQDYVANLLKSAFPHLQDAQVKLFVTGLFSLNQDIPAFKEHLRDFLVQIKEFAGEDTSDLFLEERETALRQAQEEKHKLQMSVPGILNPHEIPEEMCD
UniProt Q04207: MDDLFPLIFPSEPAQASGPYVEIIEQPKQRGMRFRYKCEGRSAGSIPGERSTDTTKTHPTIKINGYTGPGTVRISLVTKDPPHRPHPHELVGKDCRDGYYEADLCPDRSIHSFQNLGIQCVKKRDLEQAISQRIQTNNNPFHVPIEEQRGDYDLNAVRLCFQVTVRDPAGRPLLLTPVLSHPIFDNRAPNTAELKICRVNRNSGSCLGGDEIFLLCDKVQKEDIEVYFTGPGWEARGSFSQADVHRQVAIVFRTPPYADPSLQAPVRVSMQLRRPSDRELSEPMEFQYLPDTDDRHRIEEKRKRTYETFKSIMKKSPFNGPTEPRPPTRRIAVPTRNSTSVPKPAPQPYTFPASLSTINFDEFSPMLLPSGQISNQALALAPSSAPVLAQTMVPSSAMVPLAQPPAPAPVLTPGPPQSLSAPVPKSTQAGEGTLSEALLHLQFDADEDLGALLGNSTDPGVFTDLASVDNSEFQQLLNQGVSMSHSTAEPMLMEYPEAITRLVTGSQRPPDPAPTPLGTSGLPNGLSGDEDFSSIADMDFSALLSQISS

Biological target: exportin-1 (CRM1) (mouse (endogenous in primary tail fibroblasts)) (UniProt Q6P5F9)
Assay: proximity ligation; Duolink in situ PLA on fixed, permeabilised WT and Hmox1 KO mouse fibroblasts not stimulated with TNFα; anti-p65 (mouse) and anti-CRM1 (rabbit) primary antibodies; cells untreated or treated with olaparib (100 nM, 24 h); nuclear PLA signal quantified

## NF-κB p65 subunit (from UniProt Q04207 1-549)
  binding: binds
